Assay results from publication PMC8909696.
These are yes or no findings as the source states them, for the method shown. Binding seen in cells or lysates may run through a third protein. Some binding calls cover weakened binding; strength is not graded here.

Sequences of proteins named here, by UniProt entry; tags and fusion partners are left off.
UniProt P50637: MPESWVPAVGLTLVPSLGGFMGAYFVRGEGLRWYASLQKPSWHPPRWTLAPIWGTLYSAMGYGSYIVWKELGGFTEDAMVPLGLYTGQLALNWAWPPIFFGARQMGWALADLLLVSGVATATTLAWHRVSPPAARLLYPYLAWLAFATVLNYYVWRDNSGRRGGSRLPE

Legend:
[1] = target: 18-kDa translocator protein (TSPO) (mouse (endogenous in peritoneal macrophages)) (UniProt P50637); assay: co-IP; endogenous proteins of mouse peritoneal macrophages at steady state (no LPS plus ATP); NP-40 IP lysis buffer, primary antibodies 10 h at 4 °C, Protein G Dynabeads, SDS-PAGE
[2] = target: 18-kDa translocator protein (TSPO) (mouse (endogenous in peritoneal macrophages)) (UniProt P50637); assay: condition: only steady state, cells without LPS plus ATP; co-IP; endogenous proteins of mouse peritoneal macrophages at steady state (no LPS plus ATP); NP-40 IP lysis buffer, primary antibodies 10 h at 4 °C, Protein G Dynabeads, SDS-PAGE
[3] = target: 18-kDa translocator protein (TSPO) (mouse (endogenous in peritoneal macrophages)) (UniProt P50637); assay: co-IP; endogenous proteins of mouse peritoneal macrophages after LPS plus ATP (pyroptosis induction); NP-40 IP lysis buffer, primary antibodies 10 h at 4 °C, Protein G Dynabeads, SDS-PAGE

B1: GSDMD (protein, UniProt Q9D8T2 1-487)
chain: MPSAFEKVVKNVIKEVSGSRGDLIPVDSLRNSTSFRPYCLLNRKFSSSRFWKPRYSCVNLSIKDILEPSAPEPEPECFGSFKVSDVVDGNIQGRVMLSGMGEGKISGGAAVSDSSSASMNVCILRVTQKTWETMQHERHLQQPENKILQQLRSRGDDLFVVTEVLQTKEEVQITEVHSQEGSGQFTLPGALCLKGEGKGHQSRKKMVTIPAGSILAFRVAQLLIGSKWDILLVSDEKQRTFEPSSGDRKAVGQRHHGLNVLAALCSIGKQLSLLSDGIDEEELIEAADFQGLYAEVKACSSELESLEMELRQQILVNIGKILQDQPSMEALEASLGQGLCSGGQVEPLDGPAGCILECLVLDSGELVPELAAPIFYLLGALAVLSETQQQLLAKALETTVLSKQLELVKHVLEQSTPWQEQSSVSLPTVLLGDCWDEKNPTWVLLEECGLRLQVESPQVHWEPTSLIPTSALYASLFLLSSLGQKPC
binding [1]: binds weakly
binding [2]: no binding
binding [3]: binds
